Experimental data taken from PubChem BioAssay AID330 (DTP/NCI, 2004).
The list shows only some results of the screen, not a fair sample: its compounds were picked by chemical class. Other doses and runs of a compound may be missing. T/C: endpoint of the treated group in % of that of the vehicle group. Where survival is the endpoint, the PubChem record calls one and a half times the control and up active, and a quarter to a half above the control has no call in these data; cut-offs in other NCI protocols can differ. Schedule codes are those of the source, taken here to give the interval after Q, in days (D) or hours (H), and the number of doses after X. Some doses were run more than once; the values are given in rising order. Some T/C values are marked as having no survivor count here; that says nothing about deaths at the dose.

Test system: P388 leukemia ip, CD2F1 mice, survival T/C
Assay: NCI In Vivo Anticancer Drug Screen. Data for tumor model P388 Leukemia (intraperitoneal) in CD2F1 (CDF1) mice
Settings: T/C endpoint: median survival time, higher T/C = longer survival
[1] = dose: 100.0 mg/kg/injection, schedule: Q01DX009 (ip), vehicle: saline with Tween-80
[2] = dose: 100.0 mg/kg/injection, schedule: Q04DX003 (ip), vehicle: saline with Tween-80
[3] = dose: 200.0 mg/kg/injection, schedule: Q01DX009 (ip), vehicle: saline with Tween-80
[4] = dose: 400.0 mg/kg/injection, schedule: Q01DX009 (ip), vehicle: saline with Tween-80

## Cc1nc(-c2ccc(N(CCCl)CCCl)cc2)cs1
[1]
  T/C: 122 % of control [survivor count not shown]
[2]
  T/C: 95 % of control [survivor count not shown]
[3]
  T/C: 140 % of control [survivor count not shown]
dose: 200.0 mg/kg/injection, schedule: Q04DX003 (ip), vehicle: saline with Tween-80
  T/C: 95 % of control [survivor count not shown]
[4]
  T/C: 136 % of control [survivor count not shown]
dose: 400.0 mg/kg/injection, schedule: Q04DX003 (ip), vehicle: saline with Tween-80
  T/C: 112 % of control [survivor count not shown]

## Cc1cccc(C)n1.O=S(=O)(O)Oc1ccc(N(CCCl)CCCl)cc1
dose: 50.0 mg/kg/injection, schedule: Q01DX001 (ip), vehicle: Klucel (hydroxypropylcellulose) (HPC)
  T/C: 130 % of control [survivor count not shown]
dose: 100.0 mg/kg/injection, schedule: Q01DX001 (ip), vehicle: Klucel (hydroxypropylcellulose) (HPC)
  T/C: 148 % of control [survivor count not shown]
dose: 200.0 mg/kg/injection, schedule: Q01DX001 (ip), vehicle: Klucel (hydroxypropylcellulose) (HPC)
  T/C: 151 % of control [survivor count not shown]

## COc1cc(CN(CCCl)CCBr)cc(OC)c1
dose: 0.09 mg/kg/injection, schedule: Q01DX009 (ip), vehicle: saline with Tween-80
  T/C: 115 % of control [survivor count not shown]
dose: 0.18 mg/kg/injection, schedule: Q01DX009 (ip), vehicle: saline with Tween-80
  T/C: 119 % of control [survivor count not shown]
dose: 0.37 mg/kg/injection, schedule: Q01DX009 (ip), vehicle: saline with Tween-80
  T/C: 129 [survivor count not shown] and 134 % of control [survivor count not shown]
dose: 0.75 mg/kg/injection, schedule: Q01DX009 (ip), vehicle: saline with Tween-80
  T/C: 138 % of control [survivor count not shown]
dose: 1.5 mg/kg/injection, schedule: Q01DX009 (ip), vehicle: saline with Tween-80
  T/C: 152 % of control [survivor count not shown]
dose: 3.0 mg/kg/injection, schedule: Q01DX009 (ip), vehicle: saline with Tween-80
  T/C: 93 % of control [survivor count not shown]

## Cc1cc(C)c(N(CCCl)CCCl)cc1C
dose: 0.8 mg/kg/injection, schedule: Q01DX009 (ip), vehicle: saline with Tween-80
  T/C: 128 % of control [survivor count not shown]
dose: 1.2 mg/kg/injection, schedule: Q01DX009 (ip), vehicle: saline with Tween-80
  T/C: 137 % of control [survivor count not shown]
dose: 1.8 mg/kg/injection, schedule: Q01DX009 (ip), vehicle: saline with Tween-80
  T/C: 164 % of control [survivor count not shown]
dose: 2.7 mg/kg/injection, schedule: Q01DX009 (ip), vehicle: saline with Tween-80
  T/C: 156 % of control [survivor count not shown]
dose: 2.7 mg/kg/injection, schedule: Q01DX010 (ip), vehicle: saline with Tween-80
  T/C: 159 % of control [survivor count not shown]
dose: 4.0 mg/kg/injection, schedule: Q01DX010 (ip), vehicle: saline with Tween-80
  T/C: 180 % of control [survivor count not shown]
dose: 6.0 mg/kg/injection, schedule: Q01DX010 (ip), vehicle: saline with Tween-80
  T/C: 223 % of control [survivor count not shown]
dose: 6.25 mg/kg/injection, schedule: Q01DX009 (ip), vehicle: saline with Tween-80
  T/C: 217 % of control [survivor count not shown]
dose: 9.0 mg/kg/injection, schedule: Q01DX010 (ip), vehicle: saline with Tween-80
  T/C: 229 % of control [survivor count not shown]
dose: 12.5 mg/kg/injection, schedule: Q01DX009 (ip), vehicle: saline with Tween-80
  T/C: 103 % of control [survivor count not shown]

## CCc1cccc2ccc(N(CCCl)CCCl)cc12
dose: 50.0 mg/kg/injection, schedule: Q04DX003 (ip), vehicle: Klucel (hydroxypropylcellulose) (HPC)
  T/C: 94 % of control [survivor count not shown]
dose: 100.0 mg/kg/injection, schedule: Q04DX003 (ip), vehicle: Klucel (hydroxypropylcellulose) (HPC)
  T/C: 100 % of control [survivor count not shown]
dose: 200.0 mg/kg/injection, schedule: Q04DX003 (ip), vehicle: Klucel (hydroxypropylcellulose) (HPC)
  T/C: 100 % of control [survivor count not shown]

## ClCCN1CCC(C2CCN(CCCl)CC2)CC1
dose: 3.12 mg/kg/injection, schedule: Q01DX005 (ip), vehicle: saline
  T/C: 123 % of control
dose: 6.25 mg/kg/injection, schedule: Q01DX005 (ip), vehicle: saline
  T/C: 132 and 145 % of control
dose: 12.5 mg/kg/injection, schedule: Q01DX005 (ip), vehicle: saline
  T/C: 159 and 179 % of control

## ClCCN(CCCl)Cc1ccc(Cl)cc1
dose: 25.0 mg/kg/injection, schedule: Q04DX003 (ip), vehicle: alcohol
  T/C: 165 % of control [survivor count not shown]
dose: 50.0 mg/kg/injection, schedule: Q04DX003 (ip), vehicle: alcohol
  T/C: 95 % of control [survivor count not shown]

## Cc1cc(N(CCCl)CCCl)ccc1C=O
dose: 25.0 mg/kg/injection, schedule: Q01DX009 (ip), vehicle: saline with Tween-80
  T/C: 89 [survivor count not shown] and 96 % of control [survivor count not shown]
dose: 50.0 mg/kg/injection, schedule: Q01DX009 (ip), vehicle: saline with Tween-80
  T/C: 114 [survivor count not shown], 125 [survivor count not shown], 127 % of control [survivor count not shown]
[1]
  T/C: 98 [survivor count not shown], 147 [survivor count not shown], 154 % of control [survivor count not shown]

## NN(CCCl)CCCl
dose: 1.25 mg/kg/injection, schedule: Q04DX003 (ip), vehicle: saline
  T/C: 120 % of control [survivor count not shown]
dose: 2.5 mg/kg/injection, schedule: Q04DX003 (ip), vehicle: saline
  T/C: 130 % of control [survivor count not shown]
dose: 5.0 mg/kg/injection, schedule: Q04DX003 (ip), vehicle: saline
  T/C: 170 % of control [survivor count not shown]
dose: 6.25 mg/kg/injection, schedule: Q01DX009 (ip), vehicle: saline
  T/C: 231 % of control [survivor count not shown]
dose: 6.25 mg/kg/injection, schedule: Q04DX003 (ip), vehicle: saline
  T/C: 177 % of control [survivor count not shown]
dose: 12.5 mg/kg/injection, schedule: Q01DX009 (ip), vehicle: saline
  T/C: 95 % of control [survivor count not shown]
dose: 12.5 mg/kg/injection, schedule: Q04DX003 (ip), vehicle: saline
  T/C: 200 % of control [survivor count not shown]
dose: 25.0 mg/kg/injection, schedule: Q04DX003 (ip), vehicle: saline
  T/C: 118 % of control [survivor count not shown]

## Oc1c(SCCCl)c(SCCCl)c(O)c(SCCCl)c1SCCCl
dose: 17.8 mg/kg/injection, schedule: Q01DX009 (ip), vehicle: saline with Tween-80
  T/C: 118 % of control [survivor count not shown]
dose: 26.6 mg/kg/injection, schedule: Q01DX009 (ip), vehicle: saline with Tween-80
  T/C: 118 % of control [survivor count not shown]
dose: 40.0 mg/kg/injection, schedule: Q01DX009 (ip), vehicle: saline with Tween-80
  T/C: 131 % of control [survivor count not shown]
dose: 44.0 mg/kg/injection, schedule: Q01DX009 (ip), vehicle: saline with Tween-80
  T/C: 159 % of control [survivor count not shown]
dose: 44.0 mg/kg/injection, schedule: Q04DX003 (ip), vehicle: saline with Tween-80
  T/C: 118 % of control [survivor count not shown]
dose: 60.0 mg/kg/injection, schedule: Q01DX009 (ip), vehicle: saline with Tween-80
  T/C: 127 % of control [survivor count not shown]
dose: 66.0 mg/kg/injection, schedule: Q01DX009 (ip), vehicle: saline with Tween-80
  T/C: 168 % of control [survivor count not shown]
dose: 66.0 mg/kg/injection, schedule: Q04DX003 (ip), vehicle: saline with Tween-80
  T/C: 131 % of control [survivor count not shown]
[1]
  T/C: 170 [survivor count not shown] and 177 % of control [survivor count not shown]
[2]
  T/C: 145 % of control [survivor count not shown]
dose: 150.0 mg/kg/injection, schedule: Q01DX009 (ip), vehicle: saline with Tween-80
  T/C: 190 % of control [survivor count not shown]
dose: 150.0 mg/kg/injection, schedule: Q04DX003 (ip), vehicle: saline with Tween-80
  T/C: 159 % of control [survivor count not shown]
[3]
  T/C: 180 % of control [survivor count not shown]
[4]
  T/C: 160 % of control [survivor count not shown]
